Reference: patent US20180022828A1
Numbering of substitutions follows the chain as printed. No constants are given. Whether binding was seen depends on the method and setting. Some results given as binding are weak or reduced against the parent protein; the word gives no strength.

B1: ErbB2-specific CAR containing the modified CD8 alpha-chain hinge region and the transmembrane and intracellular domains of human CD3 zeta-chain (protein)
chain: QVQLQQSGPELKKPGETVKISCKASGYPFTNYGMNWVKQAPGQGLKWMGWINTSTGESTFADDFKGRFDFSLETSANTAYLQINNLKSEDSATYFCARWEVYHGYVPYWGQGTTVTVSSGGGGSGGGGSGGGGSDIQLTQSHKFLSTSVGDRVSITCKASQDVYNAVAWYQQKPGQSPKLLIYSASSRYTGVPSRFTGSGSGPDFTFTISSVQAEDLAVYFCQQHFRTPFTFGSGTKLEIKALSNSIMYFSHFVPVFLPAKPTTTPAPRPPTPAPTIASQPLSLRPEASRPAAGGAVHTRGLDPKLCYLLDGILFIYGVILTALFLRVKFSRSADAPAYQQGQNQLYNELNLGRREEYDVLDKRRGRDPEMGGKPRRKNPQEGLYNELQKDKMAEAYSEIGMKGERRRGKGHDGLYQGLSTATKDTYDALHMQALPPR
B2: ErbB2-specific CAR containing the unmodified CD8 alpha-chain hinge region and the transmembrane and intracellular domains of human CD3 zeta-chain (protein)
chain: B1 chain with S289C
B3: ErbB2-specific CAR containing the modified CD8 alpha-chain hinge region and CD28 and CD3 zeta-chain signaling domains (protein)
chain: QVQLQQSGPELKKPGETVKISCKASGYPFTNYGMNWVKQAPGQGLKWMGWINTSTGESTFADDFKGRFDFSLETSANTAYLQINNLKSEDSATYFCARWEVYHGYVPYWGQGTTVTVSSGGGGSGGGGSGGGGSDIQLTQSHKFLSTSVGDRVSITCKASQDVYNAVAWYQQKPGQSPKLLIYSASSRYTGVPSRFTGSGSGPDFTFTISSVQAEDLAVYFCQQHFRTPFTFGSGTKLEIKALSNSIMYFSHFVPVFLPAKPTTTPAPRPPTPAPTIASQPLSLRPEASRPAAGGAVHTRGLDKPFWVLVVVGGVLACYSLLVTVAFIIFWVRSKRSRLLHSDYMNMTPRRPGPTRKHYQPYAPPRDFAAYRSRVKFSRSADAPAYQQGQNQLYNELNLGRREEYDVLDKRRGRDPEMGGKPRRKNPQEGLYNELQKDKMAEAYSEIGMKGERRRGKGHDGLYQGLSTATKDTYDALHMQALPPR

The binders below were run against ErbB2-Fc fusion protein (R&D Systems) (UniProt P04626) (assay: FACS of transduced NK cells stained with ErbB2-Fc fusion protein, then APC-conjugated anti-human Fc F(ab)2).

Binder | binding
B1 | binds
B2 | binds
B3 | binds
